The list shows a part of the results.
Assays:
Assay in all cases: log2 fold change, soluble protein after heating vs DMSO (PISA); higher = thermal stabilisation; K562 cells, 10 uM, 30 min; active = over 0.2 and 3.5 SD of the protein, either way, in both replicates (recomputed)
bafetinib = compound: Cc1ccc(NC(=O)c2ccc(CN3CC[C@H](N(C)C)C3)c(C(F)(F)F)c2)cc1Nc1nccc(-c2cncnc2)n1 [bafetinib]
In short: (§1)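 K562 cells at 2×10^6 cells/mL were exposed to 10 μM compound for 30 min, then aliquots were heated for 3 min across 48°C-58°C, pooled, and extracted in PBS containing 0.5% NP-40 at 4°C. The supernatant after 21,000xg for 90 min was taken as soluble protein and measured by TMTpro 16plex LC-MS/MS with channel sums equalised. Thermal stability is reported relative to control samples, with values from duplicates. Fold changes are given on a log2 scale.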

Amino acid sequences for entries named in this document (tags omitted). A change or cut given only in a name is not applied to a line headed by its entry.
UniProt Q9Y3D2: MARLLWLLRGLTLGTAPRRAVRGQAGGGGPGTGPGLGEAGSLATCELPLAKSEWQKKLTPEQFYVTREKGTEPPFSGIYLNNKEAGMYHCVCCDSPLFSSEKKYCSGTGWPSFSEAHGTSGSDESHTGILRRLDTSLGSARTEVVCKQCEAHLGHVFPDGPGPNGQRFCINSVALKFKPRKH
UniProt Q99836, whole entry, looked up: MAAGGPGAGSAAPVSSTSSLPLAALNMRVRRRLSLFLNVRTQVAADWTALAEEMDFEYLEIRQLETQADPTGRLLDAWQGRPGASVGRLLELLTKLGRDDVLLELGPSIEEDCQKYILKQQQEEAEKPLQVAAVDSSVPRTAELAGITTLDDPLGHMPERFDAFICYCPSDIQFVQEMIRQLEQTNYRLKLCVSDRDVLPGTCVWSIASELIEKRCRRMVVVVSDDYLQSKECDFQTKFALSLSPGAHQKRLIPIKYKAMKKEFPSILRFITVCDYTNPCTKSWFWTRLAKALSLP
UniProt P49914: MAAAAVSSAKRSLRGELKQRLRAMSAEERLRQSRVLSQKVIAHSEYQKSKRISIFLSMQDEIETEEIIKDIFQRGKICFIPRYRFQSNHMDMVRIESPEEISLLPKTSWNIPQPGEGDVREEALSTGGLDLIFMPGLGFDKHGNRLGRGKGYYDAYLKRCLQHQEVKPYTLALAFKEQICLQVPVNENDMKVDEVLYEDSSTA
UniProt Q9BT17: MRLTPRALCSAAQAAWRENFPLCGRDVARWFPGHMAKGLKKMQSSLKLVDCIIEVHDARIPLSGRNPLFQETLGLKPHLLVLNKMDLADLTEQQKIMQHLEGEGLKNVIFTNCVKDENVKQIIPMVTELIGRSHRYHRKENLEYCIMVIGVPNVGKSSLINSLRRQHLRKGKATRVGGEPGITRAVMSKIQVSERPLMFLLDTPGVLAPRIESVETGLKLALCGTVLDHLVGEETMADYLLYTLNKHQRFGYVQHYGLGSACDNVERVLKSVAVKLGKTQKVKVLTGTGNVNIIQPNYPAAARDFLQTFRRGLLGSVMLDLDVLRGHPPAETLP
UniProt P11055, whole entry, looked up: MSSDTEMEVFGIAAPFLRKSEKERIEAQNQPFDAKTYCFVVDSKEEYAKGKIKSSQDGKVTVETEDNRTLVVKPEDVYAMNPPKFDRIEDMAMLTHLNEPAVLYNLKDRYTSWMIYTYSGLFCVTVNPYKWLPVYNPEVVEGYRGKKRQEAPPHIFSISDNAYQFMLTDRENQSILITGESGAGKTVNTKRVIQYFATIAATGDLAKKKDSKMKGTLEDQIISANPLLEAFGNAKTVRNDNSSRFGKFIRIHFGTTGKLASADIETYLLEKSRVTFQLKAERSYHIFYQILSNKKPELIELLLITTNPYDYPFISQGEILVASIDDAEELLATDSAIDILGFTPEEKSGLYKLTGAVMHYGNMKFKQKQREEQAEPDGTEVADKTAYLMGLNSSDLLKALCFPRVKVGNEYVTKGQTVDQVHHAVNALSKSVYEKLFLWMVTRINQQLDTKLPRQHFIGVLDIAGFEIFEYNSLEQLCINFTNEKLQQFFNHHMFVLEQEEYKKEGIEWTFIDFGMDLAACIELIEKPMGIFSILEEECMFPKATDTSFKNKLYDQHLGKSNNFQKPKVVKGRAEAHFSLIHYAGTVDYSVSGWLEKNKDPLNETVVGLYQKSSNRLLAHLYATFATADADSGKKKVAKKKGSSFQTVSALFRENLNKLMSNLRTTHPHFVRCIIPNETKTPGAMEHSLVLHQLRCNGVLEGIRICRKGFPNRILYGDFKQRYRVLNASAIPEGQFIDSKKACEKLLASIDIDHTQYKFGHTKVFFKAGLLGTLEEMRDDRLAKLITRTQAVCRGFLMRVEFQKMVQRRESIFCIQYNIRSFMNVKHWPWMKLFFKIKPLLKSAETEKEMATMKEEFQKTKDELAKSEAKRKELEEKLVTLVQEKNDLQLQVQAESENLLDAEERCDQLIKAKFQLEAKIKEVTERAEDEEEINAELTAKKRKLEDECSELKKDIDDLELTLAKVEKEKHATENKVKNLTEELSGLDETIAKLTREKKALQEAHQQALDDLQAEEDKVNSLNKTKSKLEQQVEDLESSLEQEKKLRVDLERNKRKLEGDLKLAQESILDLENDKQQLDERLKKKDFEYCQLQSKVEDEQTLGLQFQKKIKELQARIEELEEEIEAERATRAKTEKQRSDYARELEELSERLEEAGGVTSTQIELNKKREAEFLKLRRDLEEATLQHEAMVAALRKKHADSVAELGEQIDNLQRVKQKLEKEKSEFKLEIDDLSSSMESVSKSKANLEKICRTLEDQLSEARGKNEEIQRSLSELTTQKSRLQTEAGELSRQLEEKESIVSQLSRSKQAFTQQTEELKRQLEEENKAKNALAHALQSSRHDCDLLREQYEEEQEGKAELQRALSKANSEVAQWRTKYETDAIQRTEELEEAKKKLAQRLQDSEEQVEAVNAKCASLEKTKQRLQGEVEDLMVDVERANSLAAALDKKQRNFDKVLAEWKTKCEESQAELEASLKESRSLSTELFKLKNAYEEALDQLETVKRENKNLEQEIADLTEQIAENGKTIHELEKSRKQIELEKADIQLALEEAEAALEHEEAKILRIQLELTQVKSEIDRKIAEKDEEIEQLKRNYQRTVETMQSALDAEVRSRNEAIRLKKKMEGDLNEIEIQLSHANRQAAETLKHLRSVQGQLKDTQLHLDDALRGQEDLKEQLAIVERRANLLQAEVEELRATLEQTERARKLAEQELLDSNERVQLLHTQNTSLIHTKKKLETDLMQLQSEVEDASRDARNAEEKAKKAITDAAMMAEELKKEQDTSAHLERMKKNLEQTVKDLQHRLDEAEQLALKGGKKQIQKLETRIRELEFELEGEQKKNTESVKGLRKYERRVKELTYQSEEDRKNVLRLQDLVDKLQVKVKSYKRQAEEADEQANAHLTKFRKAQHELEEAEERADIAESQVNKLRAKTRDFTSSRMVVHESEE
UniProt Q9BUK6: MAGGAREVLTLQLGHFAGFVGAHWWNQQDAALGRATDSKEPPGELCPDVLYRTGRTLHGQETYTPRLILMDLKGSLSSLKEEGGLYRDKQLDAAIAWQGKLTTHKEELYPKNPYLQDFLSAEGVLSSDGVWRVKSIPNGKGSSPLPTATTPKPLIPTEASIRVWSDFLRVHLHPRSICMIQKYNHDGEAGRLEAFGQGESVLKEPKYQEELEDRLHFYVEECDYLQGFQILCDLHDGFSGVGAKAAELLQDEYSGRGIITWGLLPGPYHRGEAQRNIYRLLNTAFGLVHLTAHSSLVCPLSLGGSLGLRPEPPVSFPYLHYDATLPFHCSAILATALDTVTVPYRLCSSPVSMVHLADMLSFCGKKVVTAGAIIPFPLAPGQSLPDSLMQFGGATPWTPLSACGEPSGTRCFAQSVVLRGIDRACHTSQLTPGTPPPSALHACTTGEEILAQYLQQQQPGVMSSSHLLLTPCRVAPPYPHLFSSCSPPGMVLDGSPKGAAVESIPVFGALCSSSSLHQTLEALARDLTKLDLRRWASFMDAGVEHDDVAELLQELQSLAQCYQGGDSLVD
UniProt Q9BQG0: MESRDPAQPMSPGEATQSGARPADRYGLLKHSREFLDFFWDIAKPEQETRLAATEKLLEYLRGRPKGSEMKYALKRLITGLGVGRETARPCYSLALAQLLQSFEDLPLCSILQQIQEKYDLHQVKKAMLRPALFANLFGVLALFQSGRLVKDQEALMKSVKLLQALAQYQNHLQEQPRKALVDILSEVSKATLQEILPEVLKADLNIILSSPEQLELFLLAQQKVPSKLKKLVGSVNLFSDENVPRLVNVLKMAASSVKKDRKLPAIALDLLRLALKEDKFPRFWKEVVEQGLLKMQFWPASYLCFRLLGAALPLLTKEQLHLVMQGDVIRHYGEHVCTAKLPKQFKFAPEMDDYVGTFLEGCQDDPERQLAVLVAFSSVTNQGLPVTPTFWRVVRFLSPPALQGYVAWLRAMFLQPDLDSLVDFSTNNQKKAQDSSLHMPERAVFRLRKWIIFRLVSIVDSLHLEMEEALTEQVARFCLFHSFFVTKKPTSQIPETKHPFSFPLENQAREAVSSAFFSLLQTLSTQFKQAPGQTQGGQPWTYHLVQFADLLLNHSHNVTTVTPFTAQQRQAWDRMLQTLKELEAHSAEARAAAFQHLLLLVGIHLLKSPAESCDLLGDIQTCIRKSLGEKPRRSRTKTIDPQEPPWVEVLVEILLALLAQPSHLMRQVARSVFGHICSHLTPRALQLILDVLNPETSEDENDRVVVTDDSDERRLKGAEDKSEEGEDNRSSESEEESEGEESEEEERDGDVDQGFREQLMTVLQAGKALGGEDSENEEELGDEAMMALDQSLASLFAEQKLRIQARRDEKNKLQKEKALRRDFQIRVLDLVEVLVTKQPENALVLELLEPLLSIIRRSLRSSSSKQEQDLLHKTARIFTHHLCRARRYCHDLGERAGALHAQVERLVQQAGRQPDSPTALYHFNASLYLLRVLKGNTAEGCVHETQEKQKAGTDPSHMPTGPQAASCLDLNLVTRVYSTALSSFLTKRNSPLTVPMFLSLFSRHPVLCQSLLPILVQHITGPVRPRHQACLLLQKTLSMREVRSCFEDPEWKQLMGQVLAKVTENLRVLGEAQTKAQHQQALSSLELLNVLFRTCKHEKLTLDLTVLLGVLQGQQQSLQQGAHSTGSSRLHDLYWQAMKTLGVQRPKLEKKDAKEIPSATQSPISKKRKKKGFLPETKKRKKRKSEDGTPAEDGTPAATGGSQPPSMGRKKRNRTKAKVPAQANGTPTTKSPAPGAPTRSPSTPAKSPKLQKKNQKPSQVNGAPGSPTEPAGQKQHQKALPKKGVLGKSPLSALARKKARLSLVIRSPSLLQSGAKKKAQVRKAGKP

[1] = compound: Cc1cccc(CC(=O)N2CCc3c2ccc(-c2cn(C)c4ncnc(N)c24)c3F)n1
In short: as §1

nilotinib = compound: Cc1cn(-c2cc(NC(=O)c3ccc(C)c(Nc4nccc(-c5cccnc5)n4)c3)cc(C(F)(F)F)c2)cn1 [nilotinib]
In short: as §1

[2] = compound: Cc1nc(Nc2n[nH]c3c2CN(C(=O)N[C@H](CN(C)C)c2ccccc2)C3(C)C)c2sccc2n1
In short: as §1

dasatinib = compound: Cc1nc(Nc2ncc(C(=O)Nc3c(C)cccc3Cl)s2)cc(N2CCN(CCO)CC2)n1 [dasatinib]
In short: as §1

[3] = compound: Cc1ncc(-c2ccnc(Nc3ccc(S(C)(=O)=O)cc3)n2)n1C(C)C
In short: as §1

[4] = compound: Cn1cc(-c2ccc3c(c2)CCN3C(=O)Cc2cccc(C(F)(F)F)c2)c2c(N)ncnc21
In short: as §1

[5] = compound: Cn1cc(-c2ccc3nnc(C(F)(F)c4ccc5ncccc5c4)n3n2)cn1
In short: as §1

tipifarnib = compound: Cn1cncc1[C@@](N)(c1ccc(Cl)cc1)c1ccc2c(c1)c(-c1cccc(Cl)c1)cc(=O)n2C [tipifarnib]
In short: as §1

mubritinib = compound: FC(F)(F)c1ccc(/C=C/c2nc(COc3ccc(CCCCn4ccnn4)cc3)co2)cc1 [mubritinib]
In short: as §1

[6] = compound: NC(=O)Nc1cc(-c2cccc(F)c2)sc1C(=O)N[C@H]1CCCNC1
In short: as §1

[7] = compound: NC(=O)c1cnc(N[C@@H]2CCCC[C@@H]2N)nc1Nc1cccc(-n2nccn2)c1
In short: as §1

[8] = compound: NC1(c2ccc(-c3nc4ccn5c(=O)[nH]nc5c4cc3-c3ccccc3)cc2)CCC1
In short: as §1

[9] = compound: NCC(=O)Nc1ccc(-n2nc(C(F)(F)F)cc2-c2ccc3c(ccc4ccccc43)c2)cc1
In short: as §1

entinostat = compound: Nc1ccccc1NC(=O)c1ccc(CNC(=O)OCc2cccnc2)cc1 [entinostat]
In short: as §1

vorinostat = compound: O=C(CCCCCCC(=O)Nc1ccccc1)NO [vorinostat]
In short: as §1

citarinostat = compound: O=C(CCCCCCNC(=O)c1cnc(N(c2ccccc2)c2ccccc2Cl)nc1)NO [citarinostat]
In short: as §1

silmitasertib = compound: O=C(O)c1ccc2c(c1)nc(Nc1cccc(Cl)c1)c1ccncc12 [silmitasertib]
In short: as §1

[10] = compound: O=C1NC(=O)C(c2cnc3ccccn23)=C1c1cn2c3c(cc(F)cc13)CN(C(=O)N1CCCCC1)CC2
In short: as §1

[11] = compound: c1cc(OCCN2CCCCC2)cc(-c2n[nH]c3ccc(-c4nnc[nH]4)cc23)c1
In short: as §1

Measured: log2 fold change

MRPS34 (UniProt P82930)
inactive: bafetinib 0.229 | [1] 0.156 | nilotinib -0.093 | [2] 0.044 | dasatinib -0.041 | [3] -0.057 | [4] -0.003 | [5] -0.152 | tipifarnib -0.07 | mubritinib 0.082 | [6] 0.012 | [7] 0.021 | [8] -0.091 | [9] 0.04 | entinostat 0 | vorinostat 0.156 | citarinostat -0.053 | silmitasertib -0.092 | [10] -0.072 | [11] -0.06

MSRB2 (UniProt Q9Y3D2)
inactive: bafetinib -0.055 | [1] -0.002 | nilotinib 0.109 | [2] 0.023 | dasatinib -0.056 | [3] 0.047 | [4] 0.034 | [5] -0.236 | tipifarnib 0.041 | mubritinib -0.081 | [6] -0.05 | [7] 0.012 | [8] 0.079 | [9] 0.235 | entinostat -0.014 | vorinostat -0.098 | citarinostat 0.131 | silmitasertib -0.077 | [10] 0.056 | [11] 0.161

MRPS14 (UniProt O60783)
inactive: bafetinib 0.103 | [1] 0.084 | nilotinib -0.229 | [2] 0.086 | dasatinib -0.062 | [3] -0.086 | [4] -0.102 | [5] -0.023 | tipifarnib 0.115 | [6] -0.012 | [7] -0.043 | [9] -0.092 | entinostat -0.002 | vorinostat 0.209 | citarinostat -0.053 | [10] -0.141 | [11] 0.004

MYD88 isoform 6 (UniProt Q99836)
inactive: bafetinib 0.531 | [1] 0.032 | nilotinib 0.061 | [2] 0.119 | [3] -0.027 | tipifarnib 0.508 | mubritinib -0.34 | [6] -0.085 | [7] 0 | [8] 0.492 | [9] -0.083 | entinostat 0.097 | vorinostat -0.001 | silmitasertib 0.194 | [10] 0.005

MTHFS (UniProt P49914)
inactive: bafetinib 0.074 | [1] 0.014 | nilotinib 0.154 | [2] 0.045 | dasatinib -0.094 | [3] 0.003 | [4] 0.032 | [5] -0.008 | tipifarnib 0.001 | mubritinib 0.045 | [6] -0.021 | [7] -0.028 | [8] -0.086 | [9] -0.135 | entinostat 0.007 | vorinostat -0.1 | citarinostat 0.025 | silmitasertib 0.021 | [10] 0.014 | [11] -0.057

MTG1 (UniProt Q9BT17)
inactive: bafetinib -0.039 | [1] -0.047 | nilotinib -0.03 | [2] 0.039 | dasatinib -0.067 | [3] -0.007 | [4] -0.125 | [5] 0.034 | tipifarnib 0.042 | mubritinib 0.04 | [7] 0.113 | [8] -0.067 | [9] 0.16 | vorinostat 0.072 | silmitasertib -0.195 | [10] 0.095

MYH3 (UniProt P11055)
inactive: bafetinib -0.067 | [1] -0.035 | nilotinib 0.003 | [2] 0.04 | [3] 0.019 | [4] 0.047 | vorinostat 0.037 | citarinostat -0.446 | [11] -0.538

MSTO1 (UniProt Q9BUK6)
inactive: bafetinib -0.03 | [1] 0.028 | nilotinib -0.057 | [2] 0.033 | dasatinib -0.174 | [3] -0.005 | [4] 0.064 | [5] 0.037 | tipifarnib -0.096 | mubritinib 0.011 | [6] 0.013 | [7] 0.015 | [8] -0.144 | [9] -0.059 | entinostat -0.005 | vorinostat 0.053 | citarinostat 0.08 | silmitasertib -0.015 | [10] -0.045 | [11] 0.017

MYBBP1A isoform 2 (UniProt Q9BQG0)
inactive: bafetinib 0.011 | [1] -0.028 | nilotinib -0.164 | [2] -0.13 | dasatinib -0.032 | [3] -0.276 | [4] -0.126 | [5] 0.021 | [7] -0.217 | vorinostat 0.111 | citarinostat 0.15 | [10] 0.209 | [11] -0.208

— the supplement of paper PMC10849652
